Measured values from patent US9888688B2, “Tetrazolinone compounds and applications thereof” (Sumitomo Chemical Company, Limited, priority 2013, dated 2018).
Where two headings read alike, the source gives them in different places. Some of these results come from one statement about several compounds together.

Columns and labels:
[1] = system: rice blast fungus (Magnaporthe grisea); assay type: in vivo; settings: rice NIHONBARE, 6 days
[2] = system: wheat rust fungus (Puccinia recondita); test: Wheat rust control test, foliar spray on wheat (Test Examples 3, 13, 14); assay type: in vivo; settings: wheat SHIROGANE, inoculated 5 days after spraying

Cc1cc(-c2ccccn2)c(C)cc1OCc1ccccc1-n1nnn(C)c1=O [Present Compound 166]
≤ 30%: lesion area with respect to the lesion area on the non-treated plant ([1]; 200 ppm foliar spray) | lesion area with respect to the lesion area on the non-treated plant ([1]; 500 ppm foliar spray) | area of lesion spots relative to that on an untreated plant ([2]; 200 ppm foliar spray) | area of lesion spots relative to that on an untreated plant ([2]; 500 ppm foliar spray)

Cc1cc(-c2ncccc2C)c(C)cc1OCc1c(C)cccc1-n1nnn(C)c1=O [Present Compound 167]
≤ 30%: lesion area with respect to the lesion area on the non-treated plant ([1]; 200 ppm foliar spray) | lesion area with respect to the lesion area on the non-treated plant ([1]; 500 ppm foliar spray) | area of lesion spots relative to that on an untreated plant ([2]; 200 ppm foliar spray) | area of lesion spots relative to that on an untreated plant ([2]; 500 ppm foliar spray)

Cc1cc(-c2cccc(C(F)(F)F)n2)c(C)cc1OCc1c(C)cccc1-n1nnn(C)c1=O [Present Compound 169]
≤ 30%: lesion area with respect to the lesion area on the non-treated plant ([1]; 200 ppm foliar spray) | lesion area with respect to the lesion area on the non-treated plant ([1]; 500 ppm foliar spray) | area of lesion spots relative to that on an untreated plant ([2]; 200 ppm foliar spray) | area of lesion spots relative to that on an untreated plant ([2]; 500 ppm foliar spray)

COc1cccc(-c2cc(C)c(OCc3c(C)cccc3-n3nnn(C)c3=O)cc2C)n1 [Present Compound 170]
≤ 30%: lesion area with respect to the lesion area on the non-treated plant ([1]; 200 ppm foliar spray) | lesion area with respect to the lesion area on the non-treated plant ([1]; 500 ppm foliar spray) | area of lesion spots relative to that on an untreated plant ([2]; 200 ppm foliar spray)

Cc1cc(-c2cccc(F)n2)c(C)cc1OCc1c(C)cccc1-n1nnn(C)c1=O [Present Compound 171]
≤ 30%: lesion area with respect to the lesion area on the non-treated plant ([1]; 200 ppm foliar spray) | lesion area with respect to the lesion area on the non-treated plant ([1]; 500 ppm foliar spray) | area of lesion spots relative to that on an untreated plant ([2]; 200 ppm foliar spray)

Cc1ccnc(-c2cc(C)c(OCc3c(C)cccc3-n3nnn(C)c3=O)cc2C)n1 [Present Compound 172]
≤ 30%: lesion area with respect to the lesion area on the non-treated plant ([1]; 200 ppm foliar spray) | lesion area with respect to the lesion area on the non-treated plant ([1]; 500 ppm foliar spray) | area of lesion spots relative to that on an untreated plant ([2]; 200 ppm foliar spray)

Cc1cc(-c2ccc(F)cn2)c(C)cc1OCc1c(C)cccc1-n1nnn(C)c1=O [Present Compound 173]
≤ 30%: lesion area with respect to the lesion area on the non-treated plant ([1]; 200 ppm foliar spray) | lesion area with respect to the lesion area on the non-treated plant ([1]; 500 ppm foliar spray) | area of lesion spots relative to that on an untreated plant ([2]; 200 ppm foliar spray) | area of lesion spots relative to that on an untreated plant ([2]; 500 ppm foliar spray)

Cc1cc(-c2ccc(C#N)cn2)c(C)cc1OCc1c(C)cccc1-n1nnn(C)c1=O [Present Compound 174]
≤ 30%: lesion area with respect to the lesion area on the non-treated plant ([1]; 200 ppm foliar spray) | lesion area with respect to the lesion area on the non-treated plant ([1]; 500 ppm foliar spray) | area of lesion spots relative to that on an untreated plant ([2]; 200 ppm foliar spray)

Cc1cc(-c2cccc(Cl)n2)c(C)cc1OCc1c(Cl)cccc1-n1nnn(C)c1=O [Present Compound 176]
≤ 30%: lesion area with respect to the lesion area on the non-treated plant ([1]; 200 ppm foliar spray) | area of lesion spots relative to that on an untreated plant ([2]; 200 ppm foliar spray)

Cc1cc(-c2ccccn2)c(C)cc1OCc1c(Cl)cccc1-n1nnn(C)c1=O [Present Compound 177]
≤ 30%: lesion area with respect to the lesion area on the non-treated plant ([1]; 200 ppm foliar spray) | area of lesion spots relative to that on an untreated plant ([2]; 200 ppm foliar spray)

Cc1cc(-c2ncccc2F)c(C)cc1OCc1c(C)cccc1-n1nnn(C)c1=O [Present Compound 179]
≤ 30%: lesion area with respect to the lesion area on the non-treated plant ([1]; 200 ppm foliar spray) | area of lesion spots relative to that on an untreated plant ([2]; 200 ppm foliar spray)

Cc1cc(-c2cc(C(F)(F)F)ccn2)c(C)cc1OCc1c(C)cccc1-n1nnn(C)c1=O [Present Compound 181]
≤ 30%: lesion area with respect to the lesion area on the non-treated plant ([1]; 200 ppm foliar spray) | area of lesion spots relative to that on an untreated plant ([2]; 200 ppm foliar spray)

Cc1cc(-c2ccc(C(F)(F)F)cn2)c(C)cc1OCc1c(C)cccc1-n1nnn(C)c1=O [Present Compound 182]
≤ 30%: lesion area with respect to the lesion area on the non-treated plant ([1]; 200 ppm foliar spray) | lesion area with respect to the lesion area on the non-treated plant ([1]; 500 ppm foliar spray) | area of lesion spots relative to that on an untreated plant ([2]; 200 ppm foliar spray) | area of lesion spots relative to that on an untreated plant ([2]; 500 ppm foliar spray)

Cc1cc(Cl)nc(-c2ccc(OCc3c(C)cccc3-n3nnn(C)c3=O)c(C)c2)c1 [Present Compound 184]
≤ 30%: lesion area with respect to the lesion area on the non-treated plant ([1]; 200 ppm foliar spray) | area of lesion spots relative to that on an untreated plant ([2]; 200 ppm foliar spray)

Cc1cc(-c2ccc(F)cn2)ccc1OCc1c(C)cccc1-n1nnn(C)c1=O [Present Compound 185]
≤ 30%: lesion area with respect to the lesion area on the non-treated plant ([1]; 200 ppm foliar spray) | area of lesion spots relative to that on an untreated plant ([2]; 200 ppm foliar spray)

COc1ccc(-c2cc(C)c(OCc3c(C)cccc3-n3nnn(C)c3=O)cc2C)nc1 [Present Compound 186]
≤ 30%: lesion area with respect to the lesion area on the non-treated plant ([1]; 200 ppm foliar spray) | lesion area with respect to the lesion area on the non-treated plant ([1]; 500 ppm foliar spray) | area of lesion spots relative to that on an untreated plant ([2]; 200 ppm foliar spray) | area of lesion spots relative to that on an untreated plant ([2]; 500 ppm foliar spray)

Cc1cc(OCc2c(C)cccc2-n2nnn(C)c2=O)c(F)cc1-c1ccccn1 [Present Compound 187]
≤ 30%: lesion area with respect to the lesion area on the non-treated plant ([1]; 200 ppm foliar spray) | lesion area with respect to the lesion area on the non-treated plant ([1]; 500 ppm foliar spray) | area of lesion spots relative to that on an untreated plant ([2]; 200 ppm foliar spray) | area of lesion spots relative to that on an untreated plant ([2]; 500 ppm foliar spray)

Cc1cc(OCc2c(C)cccc2-n2nnn(C)c2=O)c(F)cc1-c1cccc(Cl)n1 [Present Compound 189]
≤ 30%: lesion area with respect to the lesion area on the non-treated plant ([1]; 200 ppm foliar spray) | lesion area with respect to the lesion area on the non-treated plant ([1]; 500 ppm foliar spray) | area of lesion spots relative to that on an untreated plant ([2]; 200 ppm foliar spray)

Cc1cc(OCc2c(C)cccc2-n2nnn(C)c2=O)c(Cl)cc1-c1ccccn1 [Present Compound 190]
≤ 30%: lesion area with respect to the lesion area on the non-treated plant ([1]; 200 ppm foliar spray) | lesion area with respect to the lesion area on the non-treated plant ([1]; 500 ppm foliar spray) | area of lesion spots relative to that on an untreated plant ([2]; 200 ppm foliar spray) | area of lesion spots relative to that on an untreated plant ([2]; 500 ppm foliar spray)

Cc1cc(OCc2c(C)cccc2-n2nnn(C)c2=O)c(Cl)cc1-c1cccc(Cl)n1 [Present Compound 191]
≤ 30%: lesion area with respect to the lesion area on the non-treated plant ([1]; 200 ppm foliar spray) | lesion area with respect to the lesion area on the non-treated plant ([1]; 500 ppm foliar spray) | area of lesion spots relative to that on an untreated plant ([2]; 200 ppm foliar spray)

COc1ccncc1-c1cc(C)c(OCc2c(C)cccc2-n2nnn(C)c2=O)cc1C [Present Compound 192]
≤ 30%: lesion area with respect to the lesion area on the non-treated plant ([1]; 200 ppm foliar spray) | area of lesion spots relative to that on an untreated plant ([2]; 200 ppm foliar spray)

COc1ncccc1-c1cc(C)c(OCc2c(C)cccc2-n2nnn(C)c2=O)cc1C [Present Compound 193]
≤ 30%: lesion area with respect to the lesion area on the non-treated plant ([1]; 200 ppm foliar spray) | lesion area with respect to the lesion area on the non-treated plant ([1]; 500 ppm foliar spray) | area of lesion spots relative to that on an untreated plant ([2]; 200 ppm foliar spray) | area of lesion spots relative to that on an untreated plant ([2]; 500 ppm foliar spray)

Cc1cc(-c2ccccn2)c(F)cc1OCc1c(C)cccc1-n1nnn(C)c1=O [Present Compound 194]
≤ 30%: lesion area with respect to the lesion area on the non-treated plant ([1]; 200 ppm foliar spray) | area of lesion spots relative to that on an untreated plant ([2]; 200 ppm foliar spray)

Cc1cc(OCc2c(C)cccc2-n2nnn(C)c2=O)c(Cl)cc1-c1ncc(Cl)cn1 [Present Compound 196]
≤ 30%: lesion area with respect to the lesion area on the non-treated plant ([1]; 200 ppm foliar spray) | area of lesion spots relative to that on an untreated plant ([2]; 200 ppm foliar spray)

Cc1cc(-c2nccc(C#N)n2)ccc1OCc1c(C)cccc1-n1nnn(C)c1=O [Present Compound 197]
≤ 30%: lesion area with respect to the lesion area on the non-treated plant ([1]; 200 ppm foliar spray) | area of lesion spots relative to that on an untreated plant ([2]; 200 ppm foliar spray)

Cc1cc(-c2ncccn2)c(C)cc1OCc1c(C)cccc1-n1nnn(C)c1=O [Present Compound 203]
≤ 30%: lesion area with respect to the lesion area on the non-treated plant ([1]; 200 ppm foliar spray) | lesion area with respect to the lesion area on the non-treated plant ([1]; 500 ppm foliar spray) | area of lesion spots relative to that on an untreated plant ([2]; 200 ppm foliar spray) | area of lesion spots relative to that on an untreated plant ([2]; 500 ppm foliar spray)

CCc1cccc(-c2cc(C)c(OCc3c(C)cccc3-n3nnn(C)c3=O)cc2C)n1 [Present Compound 204]
≤ 30%: lesion area with respect to the lesion area on the non-treated plant ([1]; 200 ppm foliar spray) | lesion area with respect to the lesion area on the non-treated plant ([1]; 500 ppm foliar spray) | area of lesion spots relative to that on an untreated plant ([2]; 200 ppm foliar spray) | area of lesion spots relative to that on an untreated plant ([2]; 500 ppm foliar spray)

Cc1cccc(-n2nnn(C)c2=O)c1COc1cc(F)c(-c2ccccn2)cc1F [Present Compound 206]
≤ 30%: lesion area with respect to the lesion area on the non-treated plant ([1]; 50 ppm foliar spray) | area of lesion spots relative to that on an untreated plant ([2]; 200 ppm foliar spray)

Cc1cccc(-n2nnn(C)c2=O)c1COc1cc(Cl)c(-c2ccccn2)cc1Cl [Present Compound 210]
≤ 30%: lesion area with respect to the lesion area on the non-treated plant ([1]; 200 ppm foliar spray) | area of lesion spots relative to that on an untreated plant ([2]; 200 ppm foliar spray)

Cc1cc(-c2ccccn2)c(Cl)cc1OCc1c(C)cccc1-n1nnn(C)c1=O [Present Compound 213]
≤ 30%: lesion area with respect to the lesion area on the non-treated plant ([1]; 200 ppm foliar spray) | area of lesion spots relative to that on an untreated plant ([2]; 200 ppm foliar spray)

CCc1cccc(-n2nnn(C)c2=O)c1COc1cc(C)c(-c2ccc(F)cn2)cc1C [Present Compound 215]
≤ 30%: lesion area with respect to the lesion area on the non-treated plant ([1]; 200 ppm foliar spray) | lesion area with respect to the lesion area on the non-treated plant ([1]; 500 ppm foliar spray) | area of lesion spots relative to that on an untreated plant ([2]; 200 ppm foliar spray) | area of lesion spots relative to that on an untreated plant ([2]; 500 ppm foliar spray)

Cc1cc(-c2ccc(F)cn2)c(C)cc1OCc1ccccc1-n1nnn(C)c1=O [Present Compound 216]
≤ 30%: lesion area with respect to the lesion area on the non-treated plant ([1]; 200 ppm foliar spray) | area of lesion spots relative to that on an untreated plant ([2]; 200 ppm foliar spray) | area of lesion spots relative to that on an untreated plant ([2]; 500 ppm foliar spray)

Cc1cc(-c2ccc(F)cn2)c(C)cc1OCc1c(Cl)cccc1-n1nnn(C)c1=O [Present Compound 217]
≤ 30%: lesion area with respect to the lesion area on the non-treated plant ([1]; 200 ppm foliar spray) | area of lesion spots relative to that on an untreated plant ([2]; 200 ppm foliar spray) | area of lesion spots relative to that on an untreated plant ([2]; 500 ppm foliar spray)

COc1cccc(-n2nnn(C)c2=O)c1COc1cc(C)c(-c2ccc(F)cn2)cc1C [Present Compound 218]
≤ 30%: lesion area with respect to the lesion area on the non-treated plant ([1]; 500 ppm foliar spray) | area of lesion spots relative to that on an untreated plant ([2]; 500 ppm foliar spray)

Cc1cc(-c2ccc(F)cn2)c(C)cc1OCc1c(C2CC2)cccc1-n1nnn(C)c1=O [Present Compound 219]
≤ 30%: lesion area with respect to the lesion area on the non-treated plant ([1]; 200 ppm foliar spray) | lesion area with respect to the lesion area on the non-treated plant ([1]; 500 ppm foliar spray) | area of lesion spots relative to that on an untreated plant ([2]; 200 ppm foliar spray) | area of lesion spots relative to that on an untreated plant ([2]; 500 ppm foliar spray)

CCc1cccc(-n2nnn(C)c2=O)c1COc1cc(C)c(-c2ccccn2)cc1C [Present Compound 220]
≤ 30%: lesion area with respect to the lesion area on the non-treated plant ([1]; 200 ppm foliar spray) | lesion area with respect to the lesion area on the non-treated plant ([1]; 500 ppm foliar spray) | area of lesion spots relative to that on an untreated plant ([2]; 200 ppm foliar spray) | area of lesion spots relative to that on an untreated plant ([2]; 500 ppm foliar spray)
